# In the supplement of paper PMC4604168 (melanoma cell lines):
# The other results are listed elsewhere or left out. Repeats are few or missing, and single values can be far off.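 The apoptosis fraction was the count of cleaved-PARP antibody-stained nuclei relative to all DNA-stained nuclei, imaged in 1,536-well plates. Screening doses were set so most cells survived, and baseline and induced cleaved-PARP levels vary greatly across cell lines.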
# Tests used:
# Experiment in all cases: cleaved PARP positive nuclei fraction relative to DMSO control; melanoma cells; higher = more apoptosis
# Conditions in all cases: library dose: low library concentration; 72 h
# CBRC034 = system: CBRC034 (line from a melanoma biopsy)
# COLO792 = system: COLO792
# COLO800 = system: COLO800
# COLO829 = system: COLO829
# G361 = system: G361
# IPC-298 = system: IPC-298
# IST-MEL1 = system: IST-MEL1
# LB2518-MEL = system: LB2518-MEL
# LOXIMVI = system: LOXIMVI
# MEL-HO = system: MEL-HO
Structure (SMILES),cleaved PARP positive nuclei fraction (CBRC034) [%],cleaved PARP positive nuclei fraction (COLO792) [%],cleaved PARP positive nuclei fraction (COLO800) [%],cleaved PARP positive nuclei fraction (COLO829) [%],cleaved PARP positive nuclei fraction (G361) [%],cleaved PARP positive nuclei fraction (IPC-298) [%],cleaved PARP positive nuclei fraction (IST-MEL1) [%],cleaved PARP positive nuclei fraction (LB2518-MEL) [%],cleaved PARP positive nuclei fraction (LOXIMVI) [%],cleaved PARP positive nuclei fraction (MEL-HO) [%]
"Nc1ncn([C@H]2C[C@H](O)[C@@H](CO)O2)c(=O)n1 [decitabine] + C[As](C)SC[C@H](NC(=O)CC[C@H](N)C(=O)O)C(=O)NCC(=O)O [Darinaparsin] (first compound 0.1 µM, partner dose 0.4 µM)",263,132,83.5,87.8,198,46.3,34.1,112,64,88.6
"C[As](C)SC[C@H](NC(=O)CC[C@H](N)C(=O)O)C(=O)NCC(=O)O [Darinaparsin] + Cc1nc(Nc2ncc(C(=O)Nc3c(C)cccc3Cl)s2)cc(N2CCN(CCO)CC2)n1 [dasatanib] (first compound 0.4 µM, partner dose 0.004 µM)",369,104,183,131,112,60.1,80.1,79.3,111,89
"Cn1cc(C2=C(c3cn(C4CCN(Cc5ccccn5)CC4)c4ccccc34)C(=O)NC2=O)c2ccccc21 [Enzastaurin] + COCC[n+]1c2c(n(Cc3cnccn3)c1C)C(=O)c1ccccc1C2=O [YM155] (first compound 0.8 µM, partner dose 0.0004 µM)",93.6,98.7,118,25.9,59.6,138,35.3,305,82.5,111
"Cn1cc(C2=C(c3cn(C4CCN(Cc5ccccn5)CC4)c4ccccc34)C(=O)NC2=O)c2ccccc21 [Enzastaurin] + O=C(O)c1ccc2c(c1)nc(Nc1cccc(Cl)c1)c1ccncc12 [CX4945] (first compound 0.8 µM, partner dose 0.4 µM)",43.7,32.5,88.4,66.8,118,120,165,99.5,322,21.2
"Cn1cc(C2=C(c3cn(C4CCN(Cc5ccccn5)CC4)c4ccccc34)C(=O)NC2=O)c2ccccc21 [Enzastaurin] + Cn1nnc2c(C(N)=O)ncn2c1=O [temozolomide] (first compound 0.8 µM, partner dose 2 µM)",104,71.2,47.5,55.9,151,136,62.2,55.6,259,77.5
"Cc1cc(Nc2cc(N3CCN(C)CC3)nc(Sc3ccc(NC(=O)C4CC4)cc3)n2)n[nH]1 [Tozasertib] + C[C@]12O[C@H](C[C@]1(O)CO)n1c3ccccc3c3c4c(c5c6ccccc6n2c5c31)CNC4=O [Lestaurtinib] (first compound 0.006 µM, partner dose 0.004 µM)",47.4,70.8,94.6,43.4,122,44.8,72.1,102,46.8,27.7
"CC[C@]1(O)C[C@H]2CN(CCc3c([nH]c4ccccc34)[C@@](C(=O)OC)(c3cc4c(cc3OC)N(C=O)[C@H]3[C@@](O)(C(=O)OC)[C@H](OC(C)=O)[C@]5(CC)C=CCN6CC[C@]43[C@@H]65)C2)C1 [vincristine] + Cn1cc(C2=C(c3cn(C4CCN(Cc5ccccn5)CC4)c4ccccc34)C(=O)NC2=O)c2ccccc21 [Enzastaurin] (first compound 0.0001 µM, partner dose 0.8 µM)",68.6,117,128,91.4,84.7,41.8,186,116,46.8,59.1
"Cn1cc(C2=C(c3cn(C4CCN(Cc5ccccn5)CC4)c4ccccc34)C(=O)NC2=O)c2ccccc21 [Enzastaurin] + C#Cc1cccc(Nc2ncnc3cc(OCCOC)c(OCCOC)cc23)c1 [erlotinib] (first compound 0.8 µM, partner dose 0.8 µM)",110,74.5,112,50.3,66.2,112,128,68.1,85.7,54.6
"CC1(C)CCC(c2ccc(Cl)cc2)=C(CN2CCN(c3ccc(C(=O)NS(=O)(=O)c4ccc(N[C@H](CCN5CCOCC5)CSc5ccccc5)c(S(=O)(=O)C(F)(F)F)c4)cc3)CC2)C1 + Cn1cc(C2=C(c3cn(C4CCN(Cc5ccccn5)CC4)c4ccccc34)C(=O)NC2=O)c2ccccc21 [Enzastaurin] (first compound 0.4 µM, partner dose 0.8 µM)",89.7,419,156,64.7,133,304,80.3,523,484,145
"CS(=O)(=O)CCNCc1ccc(-c2ccc3ncnc(Nc4ccc(OCc5cccc(F)c5)c(Cl)c4)c3c2)o1 [lapatinib] + C[As](C)SC[C@H](NC(=O)CC[C@H](N)C(=O)O)C(=O)NCC(=O)O [Darinaparsin] (first compound 0.8 µM, partner dose 0.4 µM)",76.2,90.8,80.9,171,163,45.5,70.7,104,127,170
"CCCCCCCCc1ccc(CCC(N)(CO)CO)cc1 [fingolimod] + N.N.[Cl][Pt][Cl] [cisplatin] (first compound 2 µM, partner dose 1.6 µM)",33.1,48.4,77.7,68.4,116,123,71.5,103,218,60.9

# Look-ups from the list:
# Cc1cc(Nc2cc(N3CCN(C)CC3)nc(Sc3ccc(NC(=O)C4CC4)cc3)n2)n[nH]1 [Tozasertib] + C[C@]12O[C@H](C[C@]1(O)CO)n1c3ccccc3c3c4c(c5c6ccccc6n2c5c31)CNC4=O [Lestaurtinib] (first compound 0.006 µM, partner dose 0.004 µM) – cleaved PARP positive nuclei fraction (COLO800) [%]: 94.6
# CS(=O)(=O)CCNCc1ccc(-c2ccc3ncnc(Nc4ccc(OCc5cccc(F)c5)c(Cl)c4)c3c2)o1 [lapatinib] + C[As](C)SC[C@H](NC(=O)CC[C@H](N)C(=O)O)C(=O)NCC(=O)O [Darinaparsin] (first compound 0.8 µM, partner dose 0.4 µM) – cleaved PARP positive nuclei fraction (IPC-298) [%]: 45.5
